# Measured values from patent US20140017157A1, “ANTITUMOR AGENT COMPRISING CARBON DIOXIDE AS AN ACTIVE INGREDIENT” (NEOCHEMIR INC., priority 2011, published 2014).
# Some of these results come from one statement about several compounds together.
# Test: Body weight of tumor-bearing nude mice as an indication of a side effect (Example 5)
# Type: in vivo
# Details: FIG. 12
# Description: MDA-MB-231, a cell line of a malignant breast carcinoma, was subcutaneously implanted in the back of the 18 nude mice of 5 weeks old at 12 million cells/mouse. On the 53rd day after the implantation, body weight and tumor volume of each nude mouse were measured. The mice were divided into the following 4 groups so that the variation in tumor volumes and body weights are reduced. The treatment was done according to Example 1 (Table 5). […] The starting date of the test was defined as the 0 day and each treatment was done on the 1st, 5th, 8th, 12th and 15th day. Tumor volume was calculated by the following equation: (Maximum diameter of implanted tumor mass)×(Minimum diameter of implanted tumor mass)×(Minimum diameter of implanted tumor mass)×½. The measurement of tumor volume was done on the 8th and 15th day after tumor implantation. The measurement of body weights of the nude mice as an indication of a side effect was done on the 8th and 15th day after tumor implantation.
smiles,measurement,value
"COc1cccc2c1C(=O)c1c(O)c3c(c(O)c1C2=O)C[C@@](O)(C(=O)CO)C[C@@H]3O[C@H]1C[C@H](N)[C@H](O)[C@H](C)O1 [chemotherapeutic agent, adriamycin, reference compound]",significance level (P) of weight reduction compared to the control group,< 0.01
